In patent US12378320B2, “Methods for treating pancreatitis” (Cold Spring Harbor Laboratory, priority 2018, dated 2025):

Test system: CA19-9 modified proteins
Assay: CA19-9 IP/MS (iTRAQ) of organoid conditioned media after Dox treatment
Set-up: species or system mouse
Settings: for 17 0H 5B1 (CA19-9 IP/MS relative abundance) / 17 0H NS19 (CA19-9 IP/MS relative abundance) / 17 8H 5B1 (CA19-9 IP/MS relative abundance) / 17 8H NS19 (CA19-9 IP/MS relative abundance): A217 organoid conditioned media; for 17 0H NS19 (CA19-9 IP/MS relative abundance) / 17 8H NS19 (CA19-9 IP/MS relative abundance) / 20 0H NS19 (CA19-9 IP/MS relative abundance) / 20 8H NS19 (CA19-9 IP/MS relative abundance): NS19-9; for 17 0H NS19 (CA19-9 IP/MS relative abundance): every printed value in this column is 1; for 20 0H 5B1 (CA19-9 IP/MS relative abundance) / 20 0H NS19 (CA19-9 IP/MS relative abundance) / 20 8H 5B1 (CA19-9 IP/MS relative abundance) / 20 8H NS19 (CA19-9 IP/MS relative abundance): A220 organoid conditioned media; for 17 0H NS19 / 17 8H 5B1 / 17 8H NS19 / 20 0H 5B1: CA19-9 IP/MS relative abundance; for 17 0H NS19 / 17 8H 5B1 / 17 8H NS19: A217 (genetic negative) organoid conditioned media; for 17 0H NS19 / 20 0H 5B1: 0H (before treatment); for 17 0H NS19 / 17 8H NS19: IP with NS19-9; for 17 0H NS19: reference channel = 1; for 17 8H 5B1 / 17 8H NS19: after 8 hours; for 17 8H 5B1 / 20 0H 5B1: IP with 5B1; for 20 0H 5B1: A220 (C;R^LSL;F) organoid conditioned media

B1: Q9D964 (protein, UniProt Q9D964 1-423, looked up)
chain: MLRVRCLRGGSRGAEAVHYIGSRLGGSLTGWVQRTFQSTQAATASSRNSCAAEDKATHPLPKDCPVSSYNEWDPLEEVIVGRAENACVPPFTVEVKANTYEKYWPFYQKNGGLYFPKDHLKKAVAEVEEMCNILSMEGVTVRRPDPIDWSLKYKTPDFESTGLYSAMPRDILMVVGNEIIEAPMAWRSRFFEYRAYRSIIKDYFHRGAKWTTAPKPTMADELYDQNYPIHSVEDRHKLAAQGKFVTTEFEPCFDAADFIRAGRDIFAQRSQVTNYLGIEWMRRHLAPDYRVHIISFKDPNPMHIDATFNIIGPGLVLSNPDRPCHQIDLFKKAGWTIVTPPTPVIPDDHPLWMSSKWLSMNVLMLDEKRVMVDANEVPIQKMFEKLGISTIKVNIRNANSLGGGFHCWTCDVRRRGTLQSYFD
modifications: full-length
17 0H 5B1 (CA19-9 IP/MS relative abundance): 1.699 | 17 0H NS19 (CA19-9 IP/MS relative abundance): 1 | 17 8H 5B1 (CA19-9 IP/MS relative abundance): 1.883 | 17 8H NS19 (CA19-9 IP/MS relative abundance): 0.442 | 20 0H 5B1 (CA19-9 IP/MS relative abundance): 1.674 | 20 0H NS19 (CA19-9 IP/MS relative abundance): 0.456 | 20 8H 5B1 (CA19-9 IP/MS relative abundance): 1.752 | 20 8H NS19 (CA19-9 IP/MS relative abundance): 0.518

B2: P32233 (protein, UniProt P32233 1-367, looked up)
chain: MSGTLAKIAEIEAEMARTQKNKATAHHLGLLKARLAKLRRELITPKGGGGGGPGEGFDVAKTGDARIGFVGFPSVGKSTLLSNLAGVYSEVAAYEFTTLTTVPGVIRYKGAKIQLLDLPGIIEGAKDGKGRGRQVIAVARTCNLILIVLDVLKPLGHKKIIENELEGFGIRLNSKPPNIGFKKKDKGGINLTATCPQSELDAETVKSILAEYKIHNADVTLRSDATADDLIDVVEGNRVYIPCIYVLNKIDQISIEELDIIYKVPHCVPISAHHRWNFDDLLEKIWDYLKLVRIYTKPKGQLPDYTSPVVLPYSRTTVEDFCMKIHKNLIKEFKYALVWGLSVKHNPQKVGKDHTLEDEDVIQIVKK
modifications: full-length
17 0H 5B1 (CA19-9 IP/MS relative abundance): 1.123 | 17 0H NS19 (CA19-9 IP/MS relative abundance): 1 1 | 17 8H 5B1 (CA19-9 IP/MS relative abundance): 0.577 | 17 8H NS19 (CA19-9 IP/MS relative abundance): 0.465 | 20 0H 5B1 (CA19-9 IP/MS relative abundance): 0.459 | 20 0H NS19 (CA19-9 IP/MS relative abundance): 0.122 | 20 8H 5B1 (CA19-9 IP/MS relative abundance): 0.738 | 20 8H NS19 (CA19-9 IP/MS relative abundance): 0.269

B3: P01868 (protein, UniProt P01868 1-324, looked up)
chain: AKTTPPSVYPLAPGSAAQTNSMVTLGCLVKGYFPEPVTVTWNSGSLSSGVHTFPAVLQSDLYTLSSSVTVPSSPRPSETVTCNVAHPASSTKVDKKIVPRDCGCKPCICTVPEVSSVFIFPPKPKDVLTITLTPKVTCVVVDISKDDPEVQFSWFVDDVEVHTAQTQPREEQFNSTFRSVSELPIMHQDWLNGKEFKCRVNSAAFPAPIEKTISKTKGRPKAPQVYTIPPPKEQMAKDKVSLTCMITDFFPEDITVEWQWNGQPAENYKNTQPIMNTNGSYFVYSKLNVQKSNWEAGNTFTCSVLHEGLHNHHTEKSLSHSPGK
modifications: full-length
17 0H NS19: 1 | 17 8H 5B1: 0.094 | 17 8H NS19: 1.113 | 20 0H 5B1: 0.098

B4: Q9DB16 (protein, UniProt Q9DB16 1-337, looked up)
chain: MKKMPLFSKSHKNPAEIVKILKDNLAILEKQDKKTDKASEEVSKSLQAMKEILCGTNDKEPPTEAVAQLAQELYSSGLLVTLIADLQLIDFEGKKDVTQIFNNILRRQIGTRCPTVEYISSHPHILFMLLKGYEAPQIALRCGIMLRECIRHEPLAKIILFSNQFRDFFKYVELSTFDIASDAFATFKDLLTRHKVLVADFLEQNYDTIFEDYEKLLQSENYVTKRQSLKLLGELILDRHNFTIMTKYISKPENLKLMMNLLRDKSPNIQFEAFHVFKVFVASPHKTQPIVEILLKNQPKLIEFLSSFQKERTDDEQFADEKNYLIKQIRDLKKAAP
modifications: full-length
17 0H 5B1 (CA19-9 IP/MS relative abundance): 1.254 | 17 0H NS19 (CA19-9 IP/MS relative abundance): 1 | 17 8H 5B1 (CA19-9 IP/MS relative abundance): 1.843 | 17 8H NS19 (CA19-9 IP/MS relative abundance): 1.149 | 20 0H 5B1 (CA19-9 IP/MS relative abundance): 1.682 | 20 0H NS19 (CA19-9 IP/MS relative abundance): 0.826 | 20 8H 5B1 (CA19-9 IP/MS relative abundance): 1.847 | 20 8H NS19 (CA19-9 IP/MS relative abundance): 4.987

B5: Q9JJN6 (protein, UniProt Q9JJN6 1-81, looked up)
chain: MNREGAPGKSPEEMYIQQKVRVLLMLRKMGSNLTASEEEFLRTYAGVVSSQLSQLPQHSIDQGAEDVVMAFSRSETEDRRQ
modifications: full-length
17 0H 5B1 (CA19-9 IP/MS relative abundance): 2.975 | 17 0H NS19 (CA19-9 IP/MS relative abundance): 1 | 17 8H 5B1 (CA19-9 IP/MS relative abundance): 3.304 | 17 8H NS19 (CA19-9 IP/MS relative abundance): 1.192 | 20 0H 5B1 (CA19-9 IP/MS relative abundance): 1.111 | 20 0H NS19 (CA19-9 IP/MS relative abundance): 1.111 | 20 8H 5B1 (CA19-9 IP/MS relative abundance): 0.93 | 20 8H NS19 (CA19-9 IP/MS relative abundance): 0.337

B6: Q8BVN8 (protein, UniProt Q8BVN8 1-258, looked up)
chain: MIPPADSLLKYDTPVLVSRNTEKRSPTARPLKVTIQQPGPSSTSPQPPKAKLPSTSCVPDPTKQAEEILNAILPPREWVEDTQLWIQQVSSTPSTRMDVVHLQEQLDLKLQQRQARETGICPVRRELYSQCFDELIREVTINCAERGLLLLRVRDEIHMTIAAYQTLYESSVAFGMRKALQAEQGKSDMERKITELETEKRDLERQVNEQKAKCEATEKRESERRQVEEKKHNEEIQFLKRTNQQLKAQLEGIIAPKK
modifications: full-length
17 0H 5B1 (CA19-9 IP/MS relative abundance): 4.731 | 17 0H NS19 (CA19-9 IP/MS relative abundance): 1 | 17 8H 5B1 (CA19-9 IP/MS relative abundance): 4.234 | 17 8H NS19 (CA19-9 IP/MS relative abundance): 0.656 | 20 0H 5B1 (CA19-9 IP/MS relative abundance): 4.175 | 20 0H NS19 (CA19-9 IP/MS relative abundance): 1.352 | 20 8H 5B1 (CA19-9 IP/MS relative abundance): 4.589 | 20 8H NS19 (CA19-9 IP/MS relative abundance): 1.133

B7: P01796 (protein, UniProt P01796 1-113, looked up)
chain: EVKLEESGGGLVQPGGSMKLSCVASGFTFSNYWMNWVRQSPEKGLEWVAEIRLKSHNYATHYAESVKGRFTISRDDSKSSVYLQMNNLRAEDTGIYYCTTGFAYWGQGTLVTV
modifications: full-length
17 0H NS19: 1 | 17 8H 5B1: 0.164 | 17 8H NS19: 0.872 | 20 0H 5B1: 0.159

B8: Q6GQT1 (protein, UniProt Q6GQT1 1-1474, looked up)
chain: MGKRWLPSLALLPLPPPLLLLLLLLLPTNASAPQKPIYMVMVPSLLHAGTPEKGCLLFNHLNETVTVKVSMESVRGNQSLFTDLVVDKDLFHCASFIVPQSSSNEVMFLTVQVKGPTHEFRRRSTVLIKTKESLVFAQTDKPIYKPGQMVRFRVVSLDENFHPLNELIPLLYIQDSKKNRIAQWQNFRLEGGLKQLSFPLSSEPTQGSYKVVIRTESGRTVEHPFSVKEFVLPKFEVKVAVPETITILEEEMNVSVCGIYTYGKPVPGHVTVNICRKYSNPSSCFGEESLAFCEKFSQQLDGRGCFSQLVKTKSFQLKRQEYEMQLDVNAKIQEEGTGVEETGKGLTKITRTITKLSFVNVDTHFRQGIPFVGQVLLVDGRGTPIPYEMIFIGADEANQNINTTTDKNGLARFSINTDDIMGTSLTVRAKYKDSNVCYGFRWLTEENVEAWHTANAVFSPSRSFVHLESLPYKLRCEQTLAVQAHYILNDEAVLERKELVFYYLMMAKGGIVRAGTHVLPVTQGHKKGHFSILISMETDLAPVARLVLYTILPNGEVVGDTVKYEIEKCLANKVDLVFHPNIGLPATRAFLSVMASPQSLCGLRAVDQSVLLTKPEAELSASLVYDLLPVKDLTGFPKGVNQQEEDTNGCLKQNDTYINGILYSPVQNTNEEDMYGFLKDMGLKVFTNLNIRKPKVCERLGVNKIPAAYHLVSQGHMDAFLESSESPTETTRSYFPETWIWDLVIVDSTGVAEMEVTVPDTITEWKAGAFCLSNDTGLGLSPVIDFQAFQPFFVDLTMPYSVIRGEAFTLKATVLNYLQTCIRVGVQLEASPDFLATPEEKEQKSHCICMNERHTMSWAVIPKSLGNVNFTVSAEALDSKELCRNEVPVVPERGKKDTIIKSLLVEPEGLENEVTFNSLLCPTGAEVSEQISLKLPSDVVEESARASVTVLGDILGSAMQNTQDLLKMPYGCGEQNMVLFAPNIYVLDYLNETEQLTQEIKTKAITYLNTGYQRQLNYKHRDGSYSTFGDKPGRSHANTWLTAFVLKSFAQARRYIFIDESHITQALTWLSQQQKDNGCFRSSGSLLNNAMKGGVEDEVTLSAYITIALLEMSLPVTHPVVRNALFCLDTAWKSARRGASGNHVYTKALLAYAFALAGNQDTKKEILKSLDEEAVKEDNSVHWTRAQKPRVPADLWYQPQAPSAEVEMTAYVLLAYLTTELVPTREDLTAAMLIVKWLTKQQNSHGGFSSTQDTVVALHALSKYGAATFTRAKKAAHVTIQSSGAFYTKFQVNNDNQLLLQRVTLPTVPGDYTAKVAGEGCVYLQTSLKYSVLPREKEFPFALVVQTLPGTCEDLKAHTTFQISLNISYIGSRSDSNMAIADVKMVSGFIPLKPTVKMLERSVHVSRTEVSNNHVLIYLDKVSNQMLTLFFMVQQDIPVRDLKPAIVKVYDYYEKDEFAVAKYSAPCSAGYGNA
modifications: full-length
17 0H 5B1 (CA19-9 IP/MS relative abundance): 1.798 | 17 0H NS19 (CA19-9 IP/MS relative abundance): 1 | 17 8H 5B1 (CA19-9 IP/MS relative abundance): 1.95 | 17 8H NS19 (CA19-9 IP/MS relative abundance): 0.494 | 20 0H 5B1 (CA19-9 IP/MS relative abundance): 1.105 | 20 0H NS19 (CA19-9 IP/MS relative abundance): 0.154 | 20 8H 5B1 (CA19-9 IP/MS relative abundance): 1.629 | 20 8H NS19 (CA19-9 IP/MS relative abundance): 0.214

B9: Q9DCC4 (protein, UniProt Q9DCC4 1-274, looked up)
chain: MAATMSEPRRVGFVGAGRMAEAIARGLIQAGKVEAKQVLASAPTDNNLCHFRALGCQTTHSNHEVLQNCPLVIFATKPQVLPTVLAEVAPIVTTEHIIVSVAAGISLSTMEGLLPPNTRVLRVSPNLPCVVQEGAMVMARGHHAGNDDAELLQNLLEACGQCIEVPESYVDIHTGLSGSGVAFVCTFSEALAEGAIKMGMPSGLAHRIAAQTLLGTAKMLQQEGKHPAQLRTDVLTPAGTTIHGLHALERGGFRAATMSAVEAATCRAKELSKK
modifications: full-length
17 0H 5B1 (CA19-9 IP/MS relative abundance): 2.17 | 17 0H NS19 (CA19-9 IP/MS relative abundance): 1 | 17 8H 5B1 (CA19-9 IP/MS relative abundance): 1.789 | 17 8H NS19 (CA19-9 IP/MS relative abundance): 0.614 | 20 0H 5B1 (CA19-9 IP/MS relative abundance): 2.244 | 20 0H NS19 (CA19-9 IP/MS relative abundance): 0.831 | 20 8H 5B1 (CA19-9 IP/MS relative abundance): 3.024 | 20 8H NS19 (CA19-9 IP/MS relative abundance): 0.195
